Experimental data published in PubChem BioAssay AID540276 (National Center for Advancing Translational Sciences (NCATS), 2011).
Out of some 300,000 compounds screened, about 5,400 (1.8%) were called active. The shares of active, inactive and inconclusive entries below differ from those in the screen. Calls come from the whole dose curve; tested in HEK293 cells. Potencies beside an inconclusive call are fits to weak or partial responses and may not hold up.

Assay: qHTS for inhibitors of binding or entry into cells for Marburg Virus
Conditions: Marburg virus pseudotyped entry inhibition, cell reporter; series mostly up to 37.8 µM
Potency is the fitted concentration of half-maximal effect.

Compound | Potency
O=C(CN1CCN(c2ccc(O)cc2)CC1)Nc1ccc2c(c1)OCCO2 | inconclusive: 5.62 µM [activator, partial curve, poor fit]
O=c1c(=NNc2ccccc2Cl)c(=O)c2ccccc12 | inactive
O=C(Nc1cccc(Cl)c1)c1ccc(F)c(S(=O)(=O)NCc2cccs2)c1 | inconclusive: 35.5 µM [inhibitor, single point]
O=C(NCCc1cccc(Cl)c1)c1cccnc1 | inactive
COC(=O)c1ccc(-c2n[nH]c(=O)c3ccccc23)cc1 | inconclusive: 29.1 µM [inhibitor, single point]
CC(OC(=O)CCCN=C1NS(=O)(=O)c2ccccc21)C(=O)Nc1ccccc1F (stereo not given) | inconclusive: 0.562 µM [inhibitor, full curve]
CCOc1ccc(C(=O)NCCn2cc(SCC(=O)Nc3ccc4c(c3)OCCO4)c3ccccc32)cc1 | inactive
Cc1c(C(=O)N2CCc3ccccc32)oc2c1C(=O)CC(C)(C)C2 | inconclusive: 0.73 µM [activator, partial curve]
CCC(C(=O)Nc1cc(OC)cc(OC)c1)n1nc(-c2ccc(C)c(C)c2)ccc1=O (stereo not given) | inconclusive: 22.4 µM [inhibitor, single point]
Cc1ccc(NC(=O)CN(C)S(=O)(=O)c2cccs2)cc1F | inactive
Cc1nc2scc(C)n2c(=O)c1S(=O)(=O)Nc1ccc(N2CCOCC2)c(Cl)c1 | inactive
CCCC1=Nc2cc(C(=O)NCc3ccc(OC)cc3)ccc2Sc2ccc(C)cc21 | inconclusive: 20 µM [inhibitor, partial curve, poor fit]
Cc1ccc(Cl)cc1-n1c(=O)cc(N2CC(C)OC(C)C2)[nH]c1=O (stereo not given) | inconclusive: 0.231 µM [inhibitor, partial curve, poor fit]
Cc1[nH]n(-c2cccc(Cl)c2)c(=O)c1-c1ccccc1 | inactive
Cc1ccc(S(=O)(=O)Nc2cc3c(cc2NCc2ccccc2)n(C)c(=O)n3C)c(C)c1 | inactive
CC1CCN(CCCOc2ccc(Cl)cc2Br)CC1 | inconclusive: 17.8 µM [inhibitor, partial curve, poor fit]
CCCCn1c(SCN2C(=O)c3ccccc3C2=O)nc2cc(S(N)(=O)=O)ccc21 | inconclusive: 7.08 µM [inhibitor, full curve]
COc1ccc(CCNC(=O)c2cc(=O)[nH]c3ccccc23)cc1 | inconclusive: 31.6 µM [activator, single point]
Cc1coc2cc3oc(=O)cc(C)c3cc12 | inactive
Cc1ccc2nc(NC(=O)CSCC(=O)OCC(=O)c3ccc(Br)cc3)sc2c1 | active: 3.16 µM

An excerpt of these results, tab-delimited:
Compound	Potency
O=C(NCCc1cccc(Cl)c1)c1cccnc1	inactive
COC(=O)c1ccc(-c2n[nH]c(=O)c3ccccc23)cc1	inconclusive: 29.1 µM [inhibitor, single point]
